The text below walks through data of publication PMC3589453, “Structural Characterization of the Self-Association of the Death Domain of p75^NTR” (PLoS ONE, 2013).

No constants are given. Whether binding was seen depends on the method and setting. Some entries that bind do so weakly or less than the wild type.

Assay [1] concerns the target full-length rat p75NTR C257A with N-terminal HA tag (rat) (UniProt P07174). In words: immunoprecipitation and non-reducing SDS-PAGE immunoblot; HA-p75NTR in transfected HEK 293T cells without ligand; lysate in 40 mM Tris pH 7.6, 150 mM NaCl, 0.5% NP-40, 10% glycerol; anti-HA immunoprecipitates boiled with or without DTT, blotted with anti-HA. (In general: In western blotting, separated proteins are transferred to a membrane and probed.)

Assay [2] addresses full-length rat p75NTR C257A/C379S with N-terminal HA tag (rat) (UniProt P07174). The description is as above.
The target of assay [3] is full-length rat p75NTR C379S with N-terminal HA tag (rat) (UniProt P07174). Described as above.
The target of assay [4] is p75CTD monomer (p75CTD C379S/C416S) (rat) (UniProt P07174). In words: SEC; purified p75NTR constructs and their mutants on a Superdex 75 column; monomer and dimer peaks; some runs with beta-ME or DTNB; both purified.

Consider “full-length rat p75NTR C257A with N-terminal HA tag (from UniProt P07174 30-425) (receptor)”, for which the binding entry in assay [1] is recorded as “binds”.

Turning to “full-length rat p75NTR C257A/C379S with N-terminal HA tag (from UniProt P07174 30-425) (receptor)”, the binding result in assay [2] is “binds weakly”.

Turning to “full-length rat p75NTR C379S with N-terminal HA tag (from UniProt P07174 30-425) (receptor)”, the binding entry in assay [3] was “binds”.

B1: p75CTD monomer (p75CTD C379S/C416S) (domain or fragment, UniProt P07174 334-425)
chain: GNLYSSLPLTKREEVEKLLNGDTWRHLAGELGYQPEHIDSFTHEASPVRALLASWGAQDSATLDALLAALRRIQRADIVESLSSESTATSPV
modifications: biotinylated for the BLI assay
For the molecule B1, the binding entry in assay [4] is given as “no binding”.
